In publication PMC7862700:
This is a selection; strong and weak results do not stand in their true shares. For some of these results: At the low end of the ranking the order means little.

Biological target: T1, ELK1 (UniProt P19419)
T1 sequence: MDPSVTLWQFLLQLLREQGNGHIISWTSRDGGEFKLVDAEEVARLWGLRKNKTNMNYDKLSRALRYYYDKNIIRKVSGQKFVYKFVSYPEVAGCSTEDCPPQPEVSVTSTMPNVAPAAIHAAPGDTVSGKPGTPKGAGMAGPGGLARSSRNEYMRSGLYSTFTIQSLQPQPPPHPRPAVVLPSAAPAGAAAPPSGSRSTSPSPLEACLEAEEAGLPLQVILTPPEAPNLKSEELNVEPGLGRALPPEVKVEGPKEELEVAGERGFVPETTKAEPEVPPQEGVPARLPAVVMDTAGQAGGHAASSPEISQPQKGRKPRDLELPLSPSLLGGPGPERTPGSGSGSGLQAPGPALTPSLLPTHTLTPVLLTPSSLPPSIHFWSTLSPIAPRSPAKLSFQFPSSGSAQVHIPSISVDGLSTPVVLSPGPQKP
Assay: DAPPL (digital affinity profiling via proximity ligation, sequencing)
Details: 10 mM Tris-HCl pH 7.5, 50 mM NaCl, 1 mM DTT, 4% glycerol, room temperature, 30 min; GST-TFs on glutathione beads, 16-mer random dsDNA library, 0.1% …; high values mean tight binding; double strand, one strand shown; scale: fold enrichment (6-mer frequency, TF over GST control)

Row | Sequence | binding signal
1 | CTCTTC | 1.64
2 | CCTGCA | 1.3
3 | CTCTGG | 1.5
4 | CCTCTT | 1.45
5 | CACATT | 1.16
6 | TTGTCT | 1.23
7 | TGTGCT | 1.23
8 | AAAAAA | 1.28
9 | TCACAG | 1.15
10 | ATGGCC | 1.42
11 | ACTTTG | 1.29
12 | GATGAT | 1.37
13 | CGATCC | 1.14
14 | AAATTA | 1.18
15 | AATCGC | 1.09
16 | TTAAAA | 1.15
17 | CGACCC | 1.46
18 | TGACCT | 1.82
19 | TATATA | 1.37
20 | TATAGT | 1.1

Row | Sequence | binding signal
21 | CTACTT | 1.77
22 | ATACCG | 1
23 | CCTCGT | 1.1
24 | TGCTAA | 1.37
25 | CGAAGC | 1.36
26 | TGCTCT | 1.48
27 | GTTAAC | 1.22
28 | TCGCTT | 1.3
29 | AGCCCT | 1.14
30 | TCTAAT | 1.17
31 | CGCCGA | 1.2
32 | ATTTTT | 1.14
33 | ATGATA | 1.23
34 | CAAAAT | 1.11
35 | ACCGGA | 3.55
36 | GAATCT | 0.995
37 | TGGTAC | 1.23
38 | ACCGTC | 1.21
39 | ATGATC | 1.17

Biological target: T2, ETS2 (UniProt P15036)
T2 sequence: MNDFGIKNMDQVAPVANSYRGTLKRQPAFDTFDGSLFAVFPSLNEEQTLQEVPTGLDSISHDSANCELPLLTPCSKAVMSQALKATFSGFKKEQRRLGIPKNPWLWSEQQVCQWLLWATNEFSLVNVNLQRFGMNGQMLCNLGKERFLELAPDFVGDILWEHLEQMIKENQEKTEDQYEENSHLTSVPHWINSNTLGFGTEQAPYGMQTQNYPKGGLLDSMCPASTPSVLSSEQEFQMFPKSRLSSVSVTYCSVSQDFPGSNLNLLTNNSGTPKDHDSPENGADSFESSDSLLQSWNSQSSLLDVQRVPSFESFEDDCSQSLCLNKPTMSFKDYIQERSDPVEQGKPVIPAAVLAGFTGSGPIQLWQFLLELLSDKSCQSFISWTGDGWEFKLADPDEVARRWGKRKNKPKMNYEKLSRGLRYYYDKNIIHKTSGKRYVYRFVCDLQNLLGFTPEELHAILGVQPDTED
Assay: as above
Details: 10 mM Tris-HCl pH 7.5, 50 mM NaCl, 1 mM DTT, 4% glycerol, room temperature, 30 min; GST-TFs on glutathione beads, 16-mer random dsDNA library, 0.1% …; high values mean tight binding; double strand, one strand shown; scale: fold enrichment (6-mer frequency, TF over GST control)

Row | Sequence | binding signal
40 | CCTCTT | 1.56
41 | ATTTTT | 1.1
42 | GAATCT | 1.08
43 | TGGTAC | 1.19
